From article PMC12772957 come the findings set out here.

By UniProt entry, the sequences of proteins in these tests, tags left out. Where a name states a change or a piece, a line headed by the entry shows the natural chain unless it says otherwise. Chains listed by the source or under a name are the forms on record and can include a tag or linker. Residues count along the entry.
UniProt Q9UHD9: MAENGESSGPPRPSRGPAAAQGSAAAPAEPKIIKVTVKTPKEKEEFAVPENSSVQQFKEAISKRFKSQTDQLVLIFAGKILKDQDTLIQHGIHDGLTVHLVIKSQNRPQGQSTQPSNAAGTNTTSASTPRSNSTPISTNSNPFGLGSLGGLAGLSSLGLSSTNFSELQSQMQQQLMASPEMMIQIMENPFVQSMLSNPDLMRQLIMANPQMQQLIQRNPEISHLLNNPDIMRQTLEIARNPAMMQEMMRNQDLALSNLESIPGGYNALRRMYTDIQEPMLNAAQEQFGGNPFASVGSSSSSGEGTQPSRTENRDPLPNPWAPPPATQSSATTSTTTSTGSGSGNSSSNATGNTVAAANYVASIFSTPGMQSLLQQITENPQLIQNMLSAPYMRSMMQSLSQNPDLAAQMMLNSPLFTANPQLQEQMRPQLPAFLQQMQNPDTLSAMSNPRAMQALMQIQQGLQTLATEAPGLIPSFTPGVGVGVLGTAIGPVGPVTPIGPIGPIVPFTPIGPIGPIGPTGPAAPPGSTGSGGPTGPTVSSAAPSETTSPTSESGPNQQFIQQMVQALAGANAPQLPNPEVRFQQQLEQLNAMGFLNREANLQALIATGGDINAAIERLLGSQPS
FLAG-UBQLN2 ΔUBA (AA 1-580): residues 1-580 of Q9UHD9
FLAG-UBQLN2 ΔUBL (AA 1-624 missing AA 33-107) (Q9UHD9, form named): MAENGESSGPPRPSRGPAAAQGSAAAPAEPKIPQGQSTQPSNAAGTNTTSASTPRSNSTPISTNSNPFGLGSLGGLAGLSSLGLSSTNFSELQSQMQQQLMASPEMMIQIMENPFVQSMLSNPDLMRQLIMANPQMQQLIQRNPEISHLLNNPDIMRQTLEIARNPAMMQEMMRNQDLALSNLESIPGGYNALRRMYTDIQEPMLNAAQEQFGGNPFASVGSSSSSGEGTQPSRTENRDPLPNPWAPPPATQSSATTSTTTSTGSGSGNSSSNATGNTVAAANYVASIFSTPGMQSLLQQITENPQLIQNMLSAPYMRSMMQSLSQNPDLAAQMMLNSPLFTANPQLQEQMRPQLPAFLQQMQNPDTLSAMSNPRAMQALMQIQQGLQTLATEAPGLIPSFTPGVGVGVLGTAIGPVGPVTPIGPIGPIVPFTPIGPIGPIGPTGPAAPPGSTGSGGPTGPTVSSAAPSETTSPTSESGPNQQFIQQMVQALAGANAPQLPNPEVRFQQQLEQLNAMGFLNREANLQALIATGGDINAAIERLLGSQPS
ΔSTIs FLAG-UBQLN2 (missing AA 178-248 and AA 379-462) (Q9UHD9, form named): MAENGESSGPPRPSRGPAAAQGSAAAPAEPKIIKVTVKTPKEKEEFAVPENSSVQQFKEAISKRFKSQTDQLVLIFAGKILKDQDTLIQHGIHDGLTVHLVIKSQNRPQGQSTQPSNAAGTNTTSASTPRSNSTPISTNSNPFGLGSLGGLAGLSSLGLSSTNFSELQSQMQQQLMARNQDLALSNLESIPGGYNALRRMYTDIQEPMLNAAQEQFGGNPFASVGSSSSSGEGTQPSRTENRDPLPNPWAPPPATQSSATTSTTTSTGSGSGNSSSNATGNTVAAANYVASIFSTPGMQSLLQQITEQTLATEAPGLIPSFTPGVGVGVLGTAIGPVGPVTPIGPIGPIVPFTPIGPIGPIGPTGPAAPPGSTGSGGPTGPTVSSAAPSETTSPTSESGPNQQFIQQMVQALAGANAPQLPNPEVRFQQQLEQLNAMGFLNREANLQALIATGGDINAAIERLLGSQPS
ΔPXX FLAG-UBQLN2 (missing AA 491-526) (Q9UHD9, form named): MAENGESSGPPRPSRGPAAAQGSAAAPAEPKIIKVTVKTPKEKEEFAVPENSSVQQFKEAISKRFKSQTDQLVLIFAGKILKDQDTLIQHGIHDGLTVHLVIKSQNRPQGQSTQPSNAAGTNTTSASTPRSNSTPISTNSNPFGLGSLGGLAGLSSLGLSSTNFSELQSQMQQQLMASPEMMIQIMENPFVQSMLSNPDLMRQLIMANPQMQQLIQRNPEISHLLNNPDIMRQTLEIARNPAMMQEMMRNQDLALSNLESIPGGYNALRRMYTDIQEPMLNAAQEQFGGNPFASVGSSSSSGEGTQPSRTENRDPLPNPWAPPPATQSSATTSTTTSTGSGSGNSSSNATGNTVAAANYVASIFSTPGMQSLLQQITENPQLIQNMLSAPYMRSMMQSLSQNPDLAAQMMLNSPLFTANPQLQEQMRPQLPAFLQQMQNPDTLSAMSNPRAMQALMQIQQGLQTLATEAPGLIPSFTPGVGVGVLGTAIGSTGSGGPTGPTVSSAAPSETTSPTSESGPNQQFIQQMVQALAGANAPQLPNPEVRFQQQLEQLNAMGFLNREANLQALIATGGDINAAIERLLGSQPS
UniProt Q05086: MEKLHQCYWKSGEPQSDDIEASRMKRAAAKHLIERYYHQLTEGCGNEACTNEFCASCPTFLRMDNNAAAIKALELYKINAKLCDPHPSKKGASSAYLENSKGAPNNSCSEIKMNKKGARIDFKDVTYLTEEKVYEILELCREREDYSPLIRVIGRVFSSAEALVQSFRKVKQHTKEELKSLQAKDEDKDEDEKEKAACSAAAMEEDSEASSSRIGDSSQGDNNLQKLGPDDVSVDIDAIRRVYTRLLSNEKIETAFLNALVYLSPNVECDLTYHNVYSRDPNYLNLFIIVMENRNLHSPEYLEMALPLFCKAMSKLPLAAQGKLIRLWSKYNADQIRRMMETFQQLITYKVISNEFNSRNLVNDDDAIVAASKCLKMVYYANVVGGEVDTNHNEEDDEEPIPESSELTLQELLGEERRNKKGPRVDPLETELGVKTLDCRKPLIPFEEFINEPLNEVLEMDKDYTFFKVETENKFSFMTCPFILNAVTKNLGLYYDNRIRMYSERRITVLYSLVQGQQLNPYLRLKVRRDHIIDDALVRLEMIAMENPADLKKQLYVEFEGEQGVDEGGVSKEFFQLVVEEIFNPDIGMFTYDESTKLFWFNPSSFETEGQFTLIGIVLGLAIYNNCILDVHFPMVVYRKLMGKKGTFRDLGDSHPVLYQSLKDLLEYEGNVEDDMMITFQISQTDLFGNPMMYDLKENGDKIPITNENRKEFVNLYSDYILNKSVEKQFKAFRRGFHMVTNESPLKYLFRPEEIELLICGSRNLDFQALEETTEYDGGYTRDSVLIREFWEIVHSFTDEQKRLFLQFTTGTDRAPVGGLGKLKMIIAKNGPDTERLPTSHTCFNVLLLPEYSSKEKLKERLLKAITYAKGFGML
UniProt Q9UMX0: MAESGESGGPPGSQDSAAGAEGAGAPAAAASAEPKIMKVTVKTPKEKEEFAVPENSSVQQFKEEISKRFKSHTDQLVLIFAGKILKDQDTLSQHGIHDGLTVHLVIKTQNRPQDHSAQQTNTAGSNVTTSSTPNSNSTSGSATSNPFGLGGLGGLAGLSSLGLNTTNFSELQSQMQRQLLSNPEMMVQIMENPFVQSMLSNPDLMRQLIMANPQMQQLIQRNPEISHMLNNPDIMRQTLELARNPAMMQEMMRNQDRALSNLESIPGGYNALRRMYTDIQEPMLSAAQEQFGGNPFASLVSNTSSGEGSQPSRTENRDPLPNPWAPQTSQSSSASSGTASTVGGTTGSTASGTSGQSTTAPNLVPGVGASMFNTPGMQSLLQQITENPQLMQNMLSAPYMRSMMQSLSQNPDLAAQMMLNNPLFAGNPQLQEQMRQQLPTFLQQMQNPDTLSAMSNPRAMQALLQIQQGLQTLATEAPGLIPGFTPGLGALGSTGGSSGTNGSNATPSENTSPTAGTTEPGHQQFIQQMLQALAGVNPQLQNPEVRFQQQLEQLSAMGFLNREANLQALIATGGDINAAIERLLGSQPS
UniProt P55036: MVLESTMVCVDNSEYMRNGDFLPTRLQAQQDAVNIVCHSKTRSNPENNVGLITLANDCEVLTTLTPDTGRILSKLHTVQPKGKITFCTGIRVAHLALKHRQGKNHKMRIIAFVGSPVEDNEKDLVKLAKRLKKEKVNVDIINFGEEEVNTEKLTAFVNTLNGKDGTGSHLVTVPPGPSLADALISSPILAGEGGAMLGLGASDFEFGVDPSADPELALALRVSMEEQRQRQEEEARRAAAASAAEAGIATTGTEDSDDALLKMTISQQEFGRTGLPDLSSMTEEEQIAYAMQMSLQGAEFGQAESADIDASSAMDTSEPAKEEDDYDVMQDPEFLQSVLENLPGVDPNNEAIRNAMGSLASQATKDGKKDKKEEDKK

The target in assay [1] is T1, PEG10, endogenous (gag and gag-pol not told apart in the sentence) (human (endogenous in HEK293)) (UniProt Q86TG7).
T1 sequence: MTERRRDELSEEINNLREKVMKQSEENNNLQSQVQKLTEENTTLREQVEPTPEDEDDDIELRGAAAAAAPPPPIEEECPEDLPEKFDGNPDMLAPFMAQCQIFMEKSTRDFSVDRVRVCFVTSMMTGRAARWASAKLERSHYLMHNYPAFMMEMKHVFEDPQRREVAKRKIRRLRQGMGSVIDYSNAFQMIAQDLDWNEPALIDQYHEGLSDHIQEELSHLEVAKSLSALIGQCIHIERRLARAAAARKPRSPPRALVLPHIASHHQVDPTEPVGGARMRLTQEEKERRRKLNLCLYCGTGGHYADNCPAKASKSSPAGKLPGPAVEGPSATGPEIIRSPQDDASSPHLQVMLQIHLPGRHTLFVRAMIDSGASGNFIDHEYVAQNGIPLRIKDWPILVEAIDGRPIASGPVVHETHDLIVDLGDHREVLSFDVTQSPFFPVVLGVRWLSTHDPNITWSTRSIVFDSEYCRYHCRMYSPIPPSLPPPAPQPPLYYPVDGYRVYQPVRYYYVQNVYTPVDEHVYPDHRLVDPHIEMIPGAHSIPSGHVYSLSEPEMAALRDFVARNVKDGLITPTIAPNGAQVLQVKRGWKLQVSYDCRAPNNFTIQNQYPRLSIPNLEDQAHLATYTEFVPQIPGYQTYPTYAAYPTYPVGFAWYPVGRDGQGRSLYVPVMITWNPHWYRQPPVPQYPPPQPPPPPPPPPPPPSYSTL
As to the kind of experiment: co-IP; IP of endogenous PEG10 (PEG10 antibody or IgG control) from MYC-UBQLN2-expressing TKO cells; cells treated for 16 h with bortezomib, with or without TAK243; UBQLN2 detected by anti-MYC-tag antibody (Fig. S5A right, Fig. 4C).

Assay [2] deals with ubiquilin 2 (UBQLN2), endogenous (human (endogenous in HEK293)) (UniProt Q9UHD9). In words: co-IP; IP of endogenous UBQLN2 with UBQLN2-specific antibody (6H9) or IgG control cross-linked to protein A/G resin, from WT HEK293 lysate (untransfected, or transfected with FLAG-UBE3A constructs for 48 h); cells cross-linked with DSP; non-denaturing Triton lysis buffer, 4°C overnight; western ….

The target of assay [3] is T2, HA-tagged PEG10 gag-pol^K>R (K393/567/586/590R) (human) (UniProt Q86TG7).
T2 sequence: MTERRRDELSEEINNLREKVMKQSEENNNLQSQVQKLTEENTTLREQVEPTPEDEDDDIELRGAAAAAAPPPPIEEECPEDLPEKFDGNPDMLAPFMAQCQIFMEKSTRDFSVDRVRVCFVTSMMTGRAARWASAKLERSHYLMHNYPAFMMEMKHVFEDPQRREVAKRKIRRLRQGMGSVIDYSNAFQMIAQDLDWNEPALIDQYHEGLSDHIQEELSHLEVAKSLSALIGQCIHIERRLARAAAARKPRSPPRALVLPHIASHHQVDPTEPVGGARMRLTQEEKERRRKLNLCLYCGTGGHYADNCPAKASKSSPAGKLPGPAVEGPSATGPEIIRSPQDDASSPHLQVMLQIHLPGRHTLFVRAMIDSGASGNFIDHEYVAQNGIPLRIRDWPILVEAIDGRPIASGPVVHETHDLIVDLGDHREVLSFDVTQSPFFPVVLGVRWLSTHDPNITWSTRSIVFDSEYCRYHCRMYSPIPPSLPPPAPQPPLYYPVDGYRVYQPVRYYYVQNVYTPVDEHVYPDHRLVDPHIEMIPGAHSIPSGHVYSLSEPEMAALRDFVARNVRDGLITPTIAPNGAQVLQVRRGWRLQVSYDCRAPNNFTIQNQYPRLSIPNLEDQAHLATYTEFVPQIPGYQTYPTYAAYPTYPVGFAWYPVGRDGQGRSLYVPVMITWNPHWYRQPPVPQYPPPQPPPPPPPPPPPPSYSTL
As to the kind of experiment: co-IP; IP with HA-tag antibody or IgG control from WT HEK293 transiently transfected with HA-tagged PEG10 constructs and 3xFLAG-Ub; UBQLN2 seen with an antibody that recognises UBQLN1 and UBQLN2.

The target of assay [4] is T1, PEG10, endogenous (gag and gag-pol not told apart in the sentence) (human (endogenous in HEK293)). In words: co-IP; IP of endogenous PEG10 with polyclonal PEG10 antibody or IgG control from WT (and TKO) HEK293 lysate; DSP cross-linking; non-denaturing; western blot with an antibody that recognises UBQLN1 and UBQLN2.
For another assay, the target named is MYC-UBQLN2 P497H (human) (UniProt Q9UHD9). As to the kind of experiment: co-IP; UBQLN2 variants P497H and P506T tested for interaction with PEG10 (Fig. S5C); which protein was precipitated is not told in what was shown.
The next assay has as its target MYC-UBQLN2 P506T (human) (UniProt Q9UHD9). The description is as above.
Assay [5] addresses FLAG-UBQLN2 ΔUBL (AA 1-624 missing AA 33-107) (human) (UniProt Q9UHD9). As to the kind of experiment: co-IP; IP with UBQLN2 antibody from TKO HEK293 transfected with FLAG-UBQLN2 constructs (alone, or with FLAG-tagged UBE3A); endogenous PEG10 detected with a polyclonal antibody, UBE3A with a UBE3A antibody.
The target of assay [6] is ΔSTIs FLAG-UBQLN2 (missing AA 178-248 and AA 379-462) (human) (UniProt Q9UHD9). Described as above.
The target of assay [7] is FLAG-UBQLN2 WT (AA 1-624) (human) (UniProt Q9UHD9). Described as above.
For assay [8], the target named is FLAG-UBQLN2 ΔUBA (AA 1-580) (human) (UniProt Q9UHD9). Described as above.
The target of assay [9] is ΔPXX FLAG-UBQLN2 (missing AA 491-526) (human) (UniProt Q9UHD9). The description is as above.
In assay [10] the target is ubiquilin 2 (UBQLN2), endogenous (human (endogenous in HEK293)) (UniProt Q9UHD9). As to the kind of experiment: co-IP; IP of endogenous UBQLN2 with UBQLN2-specific antibody (6H9) or IgG control cross-linked to protein A/G resin, from WT HEK293 lysate (untransfected, or transfected with FLAG-UBE3A constructs for 48 h); cells cross-linked with DSP; non-denaturing Triton lysis buffer, 4°C overnight; western …. This is another data set of the same source.

For another assay, the target named is MYC-UBQLN2 (WT) (human) (UniProt Q9UHD9). In words: co-IP; IP of MYC-UBQLN2 from TKO cells with doxycycline-inducible MYC-UBQLN2; DSP cross-linking; non-denaturing; western blot for PEG10 (Fig. S5A, left).

Where two headings read alike, the source gives them in different places. No constants are given. Whether binding was seen depends on the method and setting. In cells and extracts the contact can be indirect. Some binding calls cover weakened binding; strength is not graded here. For some assays here: Tags and fused reporters may be left off the sequences shown.

Consider “MYC-UBQLN2 (WT) (from UniProt Q9UHD9 1-624)”, for which, in [1], the binding entry is on record as “binds”.

As to “UBE3A (also known as E6AP), endogenous (from UniProt Q05086 1-875) (enzyme)”, the binding entry in [2] is “binds”.

Regarding “ubiquilin 2 (UBQLN2), endogenous (from UniProt Q9UHD9 1-624)”, the binding result in assay [3] and in assay [4] was “binds” throughout.

On to “ubiquilin 1 (UBQLN1), endogenous (from UniProt Q9UMX0 1-589)”, for which, in [4], the binding result is on record as “no binding”.

On to “PSMD4 (also known as Rpn10), endogenous (from UniProt P55036 1-377)”, for which the binding entry in [2] is on record as “binds”.

B1: PEG10, endogenous (gag and gag-pol not told apart in the sentence) (protein, UniProt Q86TG7 1-708)
chain: MTERRRDELSEEINNLREKVMKQSEENNNLQSQVQKLTEENTTLREQVEPTPEDEDDDIELRGAAAAAAPPPPIEEECPEDLPEKFDGNPDMLAPFMAQCQIFMEKSTRDFSVDRVRVCFVTSMMTGRAARWASAKLERSHYLMHNYPAFMMEMKHVFEDPQRREVAKRKIRRLRQGMGSVIDYSNAFQMIAQDLDWNEPALIDQYHEGLSDHIQEELSHLEVAKSLSALIGQCIHIERRLARAAAARKPRSPPRALVLPHIASHHQVDPTEPVGGARMRLTQEEKERRRKLNLCLYCGTGGHYADNCPAKASKSSPAGKLPGPAVEGPSATGPEIIRSPQDDASSPHLQVMLQIHLPGRHTLFVRAMIDSGASGNFIDHEYVAQNGIPLRIKDWPILVEAIDGRPIASGPVVHETHDLIVDLGDHREVLSFDVTQSPFFPVVLGVRWLSTHDPNITWSTRSIVFDSEYCRYHCRMYSPIPPSLPPPAPQPPLYYPVDGYRVYQPVRYYYVQNVYTPVDEHVYPDHRLVDPHIEMIPGAHSIPSGHVYSLSEPEMAALRDFVARNVKDGLITPTIAPNGAQVLQVKRGWKLQVSYDCRAPNNFTIQNQYPRLSIPNLEDQAHLATYTEFVPQIPGYQTYPTYAAYPTYPVGFAWYPVGRDGQGRSLYVPVMITWNPHWYRQPPVPQYPPPQPPPPPPPPPPPPSYSTL
As for B1, the binding entry (in the assay with MYC-UBQLN2 P497H (human); with MYC-UBQLN2 P506T (human); in assay [5]; in [6]; in assay [7]; in assay [8]) was “binds” throughout.

B2: PEG10 gag-pol, endogenous (protein, UniProt Q86TG7 1-708)
chain: MTERRRDELSEEINNLREKVMKQSEENNNLQSQVQKLTEENTTLREQVEPTPEDEDDDIELRGAAAAAAPPPPIEEECPEDLPEKFDGNPDMLAPFMAQCQIFMEKSTRDFSVDRVRVCFVTSMMTGRAARWASAKLERSHYLMHNYPAFMMEMKHVFEDPQRREVAKRKIRRLRQGMGSVIDYSNAFQMIAQDLDWNEPALIDQYHEGLSDHIQEELSHLEVAKSLSALIGQCIHIERRLARAAAARKPRSPPRALVLPHIASHHQVDPTEPVGGARMRLTQEEKERRRKLNLCLYCGTGGHYADNCPAKASKSSPAGKLPGPAVEGPSATGPEIIRSPQDDASSPHLQVMLQIHLPGRHTLFVRAMIDSGASGNFIDHEYVAQNGIPLRIKDWPILVEAIDGRPIASGPVVHETHDLIVDLGDHREVLSFDVTQSPFFPVVLGVRWLSTHDPNITWSTRSIVFDSEYCRYHCRMYSPIPPSLPPPAPQPPLYYPVDGYRVYQPVRYYYVQNVYTPVDEHVYPDHRLVDPHIEMIPGAHSIPSGHVYSLSEPEMAALRDFVARNVKDGLITPTIAPNGAQVLQVKRGWKLQVSYDCRAPNNFTIQNQYPRLSIPNLEDQAHLATYTEFVPQIPGYQTYPTYAAYPTYPVGFAWYPVGRDGQGRSLYVPVMITWNPHWYRQPPVPQYPPPQPPPPPPPPPPPPSYSTL
As for B2, the binding entry (in [9]; in assay [10]; in the assay with MYC-UBQLN2 (WT) (human)) was “binds” throughout.

B3: PEG10 gag, endogenous (protein, UniProt Q86TG7-2 1-325)
chain: MTERRRDELSEEINNLREKVMKQSEENNNLQSQVQKLTEENTTLREQVEPTPEDEDDDIELRGAAAAAAPPPPIEEECPEDLPEKFDGNPDMLAPFMAQCQIFMEKSTRDFSVDRVRVCFVTSMMTGRAARWASAKLERSHYLMHNYPAFMMEMKHVFEDPQRREVAKRKIRRLRQGMGSVIDYSNAFQMIAQDLDWNEPALIDQYHEGLSDHIQEELSHLEVAKSLSALIGQCIHIERRLARAAAARKPRSPPRALVLPHIASHHQVDPTEPVGGARMRLTQEEKERRRKLNLCLYCGTGGHYADNCPAKASKSSPAGNSPAPL
B3: the binding result (in assay [10]; with MYC-UBQLN2 (WT) (human)) was “binds” each time.
